Some entries share one result that the patent states for a list of compounds.
Test: Reactivity (% depletion) of nucleophilic reagent Compound 1 with test substance, HPLC; skin sensitization prediction
Conditions: pH not stated
In the case of `CCC=C1OC(=O)c2ccccc21` [3-Propylidene phthalide], the “depletion of Compound 1” value is reported as at least 5%. With `CCCCCCCCC(=O)Cl` [Nonanoyl chloride] the “depletion of Compound 1” value was at least 35%. For `O=C(Oc1ccccc1)c1ccccc1` [Phenyl benzoate], the “depletion of Compound 1” value was at least 5%. In the case of `O=C(O)c1ccc2c(c1)C(=O)OC2=O` [Trimellitic anhydride], the “depletion of Compound 1” value is reported as at least 35%. For `O=c1cccccc1O` [Tropolone], the “depletion of Compound 1” value was at least 5%.

Reference: patent US20230258569A1, “REAGENT FOR MEASURING SKIN SENSITIZATION, COMPOUND, AND METHOD FOR MEASURING SKIN SENSITIZATION” (FUJIFILM Corporation, priority 2020, published 2023)
